Source: PubChem BioAssay AID504774 (Drosophila RNAi Screening Center, 2011)
Assay: 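Knock-downs that shift viability of MMS-exposed cells relative to untreated ones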 (primary screen). Cell system: Drosophila Kc167 cells. Reagent: long dsRNA against Drosophila genes, about 0.25 µg dsRNA per well. Time to read-out: about 6 days: 3 days knock-down, then 3 days with or without MMS. Challenge: methyl methanesulphonate 0.004% (w/v) for 3 days after knock-down. Detection: 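ATP-dependent luminescence as a measure of live cells in MMS-exposed wells, quantile normalised within each plate, with replicate values also given as a mean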. Scale: mean viability with MMS and viability with MMS: higher = more surviving cells after MMS.
In all, the deposit lists about 23,000 reagents; shown is an unselected part of those that have a named target and a result. 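Values are quantile-normalised luminescence on an arbitrary scale; higher means more cells surviving MMS.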 The numbers tell different reagents against one gene apart. A plus sign joins genes that one reagent is predicted to hit.

target,reagent,mean viability with MMS,"viability with MMS, replicate 1","viability with MMS, replicate 2"
shi,1,3.60e6,4.22e6,4.06e6
Rsf1,1,3.58e6,4.43e6,3.70e6
Rsf1,2,3.51e6,4.07e6,3.90e6
CG4480,1,3.45e6,3.86e6,3.97e6
alpha-Man-Ib,1,3.45e6,3.97e6,3.87e6
CG1909,1,3.58e6,4.06e6,4.05e6
CG4440,1,3.34e6,3.79e6,3.75e6
Pvf3,1,3.50e6,3.95e6,3.99e6
Pvf3,2,3.69e6,4.24e6,4.07e6
Pvf3,3,3.48e6,3.91e6,3.97e6
Pvf3,4,3.52e6,4.03e6,3.95e6
MED15,1,2.72e6,3.11e6,2.97e6
Rlip,1,3.52e6,3.99e6,4.00e6
CG33465,1,3.50e6,4.03e6,3.94e6
pAbp,1,2.84e6,3.58e6,3.52e6
CG6839,1,3.48e6,3.94e6,3.95e6
l(3)neo43,1,3.52e6,3.73e6,4.25e6
form3,1,3.50e6,3.83e6,4.13e6
form3,2,3.61e6,4.12e6,4.07e6
form3,3,3.50e6,3.99e6,3.96e6
Osi23,1,3.52e6,4.03e6,3.95e6
CG4872,1,3.91e6,4.41e6,4.46e6
CG12782,1,3.47e6,3.81e6,4.04e6
Spn55B,1,3.57e6,3.89e6,3.96e6
Spn55B,2,3.51e6,4.03e6,3.94e6
mIF2,1,3.58e6,4.04e6,4.09e6
CG31191,1,3.60e6,4.00e6,4.15e6
CG31191,2,3.55e6,3.92e6,4.14e6
CG31191,3,3.24e6,3.77e6,3.67e6
CG33160,1,3.49e6,3.91e6,4.00e6
Marf,1,3.15e6,3.92e6,3.59e6
Gycbeta100B,1,3.67e6,4.16e6,4.06e6
Gycbeta100B,2,3.67e6,4.18e6,4.04e6
Gycbeta100B,3,3.60e6,4.05e6,4.10e6
Su(var)3-3,1,3.54e6,4.00e6,4.00e6
Jon99Fii + Jon99Cii + Jon99Ciii + 1 more,1,3.69e6,4.05e6,4.29e6
CG13386,1,3.51e6,3.91e6,4.05e6
snf,1,3.37e6,3.31e6,3.85e6
fuss,1,3.69e6,4.12e6,4.23e6
fuss,2,3.47e6,3.99e6,3.92e6
bnk,1,3.52e6,3.99e6,3.97e6
ppk10,1,3.51e6,3.86e6,4.08e6
TER94,1,3.26e6,3.73e6,3.70e6
prtp,1,3.21e6,4.18e6,4.05e6
prtp,2,3.60e6,4.03e6,4.09e6
ppk18,1,3.56e6,4.08e6,4.00e6
CG9360,1,3.64e6,4.24e6,3.98e6
Or92a,1,3.54e6,4.04e6,3.99e6
Ir52a,1,3.53e6,3.95e6,4.14e6
CG15605,1,3.66e6,4.04e6,4.22e6
CG8067,1,3.74e6,4.14e6,4.33e6
capu,1,3.57e6,4.15e6,3.96e6
capu,2,3.62e6,4.11e6,4.09e6
capu,3,3.46e6,3.91e6,3.94e6
capu,4,3.76e6,4.30e6,4.28e6
Nplp4,1,3.45e6,3.99e6,3.82e6
CG5823,1,3.77e6,4.35e6,4.11e6
RpL35A,1,3.15e6,3.68e6,3.67e6
Vha68-1,1,3.72e6,4.23e6,4.12e6
CG3081,1,3.71e6,4.34e6,4.09e6
p47,1,2.73e6,2.30e6,3.46e6
pan,1,3.34e6,3.79e6,3.82e6
pan,2,3.51e6,4.07e6,3.90e6
Rph,1,3.37e6,3.85e6,3.82e6
CG4278,1,3.56e6,3.95e6,4.14e6
CG9410 + CG15908,1,3.30e6,3.71e6,3.64e6
CG9410 + CG15908,2,3.49e6,4.07e6,3.82e6
CG4483,1,1.78e6,3.92e6,
CG32054,1,3.47e6,3.97e6,3.89e6
casp,1,3.64e6,4.04e6,4.24e6
ND-39,1,3.52e6,3.96e6,4.00e6
CG15084,1,3.63e6,4.16e6,4.09e6
CG15084,2,3.48e6,4.04e6,3.88e6
CG2915,1,3.65e6,4.08e6,4.20e6
CG12974,1,3.46e6,3.97e6,3.85e6
Ten-m,1,3.58e6,3.97e6,4.13e6
Ten-m,2,3.48e6,3.96e6,3.90e6
CG14537,1,3.58e6,4.07e6,4.07e6
Srp54,1,3.00e6,3.29e6,3.47e6
Ir48b,1,3.34e6,3.71e6,3.63e6
CG8003,1,3.56e6,4.07e6,4.02e6
CG30393,1,3.51e6,3.90e6,4.05e6
Root,1,3.72e6,4.35e6,4.06e6
Orp8,1,3.98e6,4.11e6,4.05e6
Orp8,2,3.74e6,4.23e6,4.17e6
CG7745,1,3.00e6,3.54e6,3.60e6
CG7745,2,3.65e6,4.29e6,3.99e6
